Measured values taken from publication PMC5078690.
Results are given in words; binding and its absence hold for the method and conditions named. Binding seen in cells or lysates may run through a third protein. Some binding calls cover weakened binding; strength is not graded here.

Protein sequences, listed by entry. Tags and fused reporters are not part of them. Residues count along the entry.
UniProt P84903, residues 23-685: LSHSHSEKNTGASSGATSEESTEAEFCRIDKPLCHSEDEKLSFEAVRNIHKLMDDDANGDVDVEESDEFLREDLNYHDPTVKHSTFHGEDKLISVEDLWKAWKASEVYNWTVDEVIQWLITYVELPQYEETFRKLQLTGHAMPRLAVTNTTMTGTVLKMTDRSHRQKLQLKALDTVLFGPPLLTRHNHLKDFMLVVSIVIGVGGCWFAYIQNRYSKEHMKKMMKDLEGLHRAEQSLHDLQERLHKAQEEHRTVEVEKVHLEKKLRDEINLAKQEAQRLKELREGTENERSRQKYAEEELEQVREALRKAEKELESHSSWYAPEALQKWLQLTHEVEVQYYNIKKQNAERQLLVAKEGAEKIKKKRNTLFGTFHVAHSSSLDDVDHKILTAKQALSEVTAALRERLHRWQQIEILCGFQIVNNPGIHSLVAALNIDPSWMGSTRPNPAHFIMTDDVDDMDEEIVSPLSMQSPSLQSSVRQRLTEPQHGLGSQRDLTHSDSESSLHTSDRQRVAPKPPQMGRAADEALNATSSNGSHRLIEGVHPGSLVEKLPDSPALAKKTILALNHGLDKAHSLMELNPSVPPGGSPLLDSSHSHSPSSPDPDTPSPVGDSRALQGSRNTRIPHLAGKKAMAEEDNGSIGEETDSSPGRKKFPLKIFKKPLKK
UniProt P19491, residues 22-883: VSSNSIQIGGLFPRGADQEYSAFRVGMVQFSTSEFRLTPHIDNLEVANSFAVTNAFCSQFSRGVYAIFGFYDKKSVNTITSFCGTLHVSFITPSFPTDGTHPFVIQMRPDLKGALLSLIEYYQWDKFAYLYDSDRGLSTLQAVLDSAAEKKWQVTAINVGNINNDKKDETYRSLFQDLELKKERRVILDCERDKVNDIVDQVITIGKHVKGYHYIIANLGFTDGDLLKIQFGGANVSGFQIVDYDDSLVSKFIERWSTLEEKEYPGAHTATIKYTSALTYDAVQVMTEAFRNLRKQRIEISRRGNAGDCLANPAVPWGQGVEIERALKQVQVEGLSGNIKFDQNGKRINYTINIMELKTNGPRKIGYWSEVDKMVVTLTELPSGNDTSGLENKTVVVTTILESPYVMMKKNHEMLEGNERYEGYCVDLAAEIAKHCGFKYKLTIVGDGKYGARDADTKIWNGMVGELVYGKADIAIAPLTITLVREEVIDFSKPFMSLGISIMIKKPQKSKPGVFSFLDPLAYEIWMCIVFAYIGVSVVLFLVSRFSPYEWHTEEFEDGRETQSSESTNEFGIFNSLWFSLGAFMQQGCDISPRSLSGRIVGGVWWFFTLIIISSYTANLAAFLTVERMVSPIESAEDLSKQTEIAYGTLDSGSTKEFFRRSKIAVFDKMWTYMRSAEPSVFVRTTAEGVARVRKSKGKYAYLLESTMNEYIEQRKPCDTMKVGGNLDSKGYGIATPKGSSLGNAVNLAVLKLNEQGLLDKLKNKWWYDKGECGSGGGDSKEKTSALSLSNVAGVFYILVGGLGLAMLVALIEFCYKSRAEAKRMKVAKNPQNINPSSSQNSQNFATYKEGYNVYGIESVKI
UniProt P19490, residues 19-907: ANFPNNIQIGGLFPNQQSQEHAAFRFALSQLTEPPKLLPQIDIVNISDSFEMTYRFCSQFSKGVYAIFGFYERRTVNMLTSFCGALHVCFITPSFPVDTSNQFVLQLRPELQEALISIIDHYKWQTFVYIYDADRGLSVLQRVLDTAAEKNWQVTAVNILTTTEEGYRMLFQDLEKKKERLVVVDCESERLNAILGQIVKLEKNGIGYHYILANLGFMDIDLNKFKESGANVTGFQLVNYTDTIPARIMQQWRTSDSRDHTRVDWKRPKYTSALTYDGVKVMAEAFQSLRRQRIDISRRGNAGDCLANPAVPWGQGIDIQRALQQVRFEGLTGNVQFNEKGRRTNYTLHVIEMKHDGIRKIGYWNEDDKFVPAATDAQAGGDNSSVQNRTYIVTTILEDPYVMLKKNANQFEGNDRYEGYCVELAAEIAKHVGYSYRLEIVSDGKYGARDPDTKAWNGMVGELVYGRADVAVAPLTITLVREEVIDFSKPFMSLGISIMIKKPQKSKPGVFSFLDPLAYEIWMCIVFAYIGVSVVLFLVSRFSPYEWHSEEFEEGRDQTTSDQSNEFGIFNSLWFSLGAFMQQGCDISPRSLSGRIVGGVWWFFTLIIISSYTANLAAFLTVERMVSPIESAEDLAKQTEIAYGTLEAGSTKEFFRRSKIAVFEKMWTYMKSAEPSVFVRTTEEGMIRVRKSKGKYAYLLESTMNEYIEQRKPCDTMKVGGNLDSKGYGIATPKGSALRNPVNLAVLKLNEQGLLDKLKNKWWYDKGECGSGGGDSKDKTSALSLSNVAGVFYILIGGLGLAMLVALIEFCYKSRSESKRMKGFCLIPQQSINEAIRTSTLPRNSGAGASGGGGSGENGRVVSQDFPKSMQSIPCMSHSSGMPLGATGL

Tests used:
Test in all cases: co-IP; endogenous proteins in lysates of 15-day-old rat primary cortical neurons treated with TG for 10 min; lysate buffer pH 7.5, 50 mM Tris-HCl, 150 mM NaCl, 0.1% SDS, 0.5% sodium deoxycholate, 1% NP-40; antibody (anti-STIM1, anti-STIM2, anti-GluA1 or anti-GluA2) on protein A-Sepharose, overnight at 4°C; Western blot; controls: lysate omitted, anti-Flag, IgG
[1] = target: stromal interaction molecule 1 (STIM1) (rat (endogenous in primary cortical neurons)) (UniProt P84903)
[2] = target: AMPA receptor subunit GluA2 (rat (endogenous in primary cortical neurons)) (UniProt P19491)
[3] = target: AMPA receptor subunit GluA1 (rat (endogenous in primary cortical neurons)) (UniProt P19490)

binding [1] | binding [2] | binding [3] | Substance
binds |  |  | AMPA receptor subunit GluA1 (from UniProt P19490 19-907)
binds |  |  | AMPA receptor subunit GluA2 (from UniProt P19491 22-883)
 | binds | binds | stromal interaction molecule 1 (STIM1) (from UniProt P84903 23-685)
